# Values from PubChem BioAssay AID1508597 (Cure First, 2020).
# Aim: 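Survival screen with siRNA in ovarian cancer cells derived from patients, with or without rucaparib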 (primary screen)
# System: human ovarian carcinoma lines grown from tumours: OCI-P5x (papillary serous) and OCI-C5x (clear cell)
# Reagent: siRNA pool against human genes, 1.25 pmol siRNA per well
# Duration: 72 h or 96 h, depending on the cell culture
# Conditions: rucaparib 20 µM (about IC30) or vehicle, present until read-out
# Rucaparib or vehicle: Vehicle
# Cell line: OCI-C5x (clear cell)
# Read-out: 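Luminescent ATP-based viability assay read 72 or 96 h after transfection, depending on culture, given as normalised percent viability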
# Scale: viability, normalised: higher = more viable cells remaining
# Call rule: 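a well counts as a hit if its normalised viability is under 80 percent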
# Calls: active = viability under 80%; inactive = viability 80% or more
# This is a random part of the about 2,100 reagents, in one setting of the screen. 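Calls flag viability under 80% in either arm, not effects specific to rucaparib; the reference for percent is not stated.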 Unmarked entries are inactive. Some reagents were tested in more than one well and are listed for each. Not given: the 100% reference.
Gene,PubChem SID,technical replicate,"viability, normalised (%)"
HELLS,SID405526852,1,50.6 (active)
HELLS,SID405526852,2,43.9 (active)
HELLS,SID405526852,3,54.4 (active)
AIRE,SID405527961,1,55.8 (active)
AIRE,SID405527961,2,41.5 (active)
AIRE,SID405527961,3,41.3 (active)
PRDM9,SID405527193,1,44 (active)
PRDM9,SID405527193,2,48.1 (active)
PRDM9,SID405527193,3,33.6 (active)
SH3KBP1,SID405526464,1,56.5 (active)
SH3KBP1,SID405526464,2,68.8 (active)
SH3KBP1,SID405526464,3,63.3 (active)
SP3,SID405526493,1,23.9 (active)
SP3,SID405526493,2,20.3 (active)
SP3,SID405526493,3,29.9 (active)
HP1BP3,SID405526885,1,43 (active)
HP1BP3,SID405526885,2,54.5 (active)
HP1BP3,SID405526885,3,53.4 (active)
RPS6KA3,SID405527497,1,117
RPS6KA3,SID405527497,2,100
RPS6KA3,SID405527497,3,88.1
DHX15,SID405528209,1,46.8 (active)
DHX15,SID405528209,2,48.8 (active)
DHX15,SID405528209,3,59.6 (active)
ALPK1,SID405526437,1,70.4 (active)
ALPK1,SID405526437,1,61 (active)
ALPK1,SID405526437,2,58.8 (active)
ALPK1,SID405526437,2,53 (active)
ALPK1,SID405526437,3,59.3 (active)
ALPK1,SID405526437,3,63.3 (active)
GALK2,SID405527362,1,48.1 (active)
GALK2,SID405527362,2,71.2 (active)
GALK2,SID405527362,3,56.5 (active)
NTRK3,SID405527399,1,82
NTRK3,SID405527399,2,55.3 (active)
NTRK3,SID405527399,3,61.9 (active)
BTG2,SID405528252,1,61.1 (active)
BTG2,SID405528252,2,47 (active)
BTG2,SID405528252,3,53.1 (active)
CLDN6,SID405528139,1,55.7 (active)
CLDN6,SID405528139,2,64.9 (active)
CLDN6,SID405528139,3,54 (active)
L3MBTL1,SID405526948,1,55.8 (active)
L3MBTL1,SID405526948,2,64.5 (active)
L3MBTL1,SID405526948,3,68.1 (active)
NME1-NME2,SID405527513,1,55 (active)
NME1-NME2,SID405527513,2,38 (active)
NME1-NME2,SID405527513,3,45.5 (active)

Part of the list above, set out differently.
Gene	PubChem SID	technical replicate	viability, normalised (%)
HP1BP3	SID405526885	2	54.5 (active)
HP1BP3	SID405526885	3	53.4 (active)
RPS6KA3	SID405527497	1	117

The results go on.
Gene,PubChem SID,technical replicate,"viability, normalised (%)"
HK1,SID405527755,1,58.5 (active)
HK1,SID405527755,2,69.4 (active)
HK1,SID405527755,3,44.6 (active)
SRPK1,SID405527798,1,89.2
SRPK1,SID405527798,2,66.4 (active)
SRPK1,SID405527798,3,53.5 (active)
MED11,SID405526986,1,37 (active)
MED11,SID405526986,2,45.3 (active)
MED11,SID405526986,3,41.7 (active)
RIPK4,SID405527707,1,45.8 (active)
RIPK4,SID405527707,2,47.5 (active)
RIPK4,SID405527707,3,44.3 (active)
POLG,SID405528397,1,65.1 (active)
POLG,SID405528397,2,58.7 (active)
POLG,SID405528397,3,43 (active)
MAP3K1,SID405527700,1,57.3 (active)
MAP3K1,SID405527700,2,58.3 (active)
MAP3K1,SID405527700,3,66.9 (active)
DPF1,SID405528239,1,60.1 (active)
DPF1,SID405528239,2,54.4 (active)
DPF1,SID405528239,3,55.2 (active)
POLE,SID405528329,1,47.3 (active)
POLE,SID405528329,2,42.2 (active)
POLE,SID405528329,3,44.5 (active)
RBL2,SID405527236,1,52 (active)
RBL2,SID405527236,2,51.4 (active)
RBL2,SID405527236,3,43.9 (active)
